From PubChem BioAssay record AID1053133 (Broad Institute, 2014).

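Vaccinia-infected cells with a two-color viral stage reporter; Venus fluorescence read on a plate reader; the cell line is not named here; timing not stated here.
The test concentration is not given here.
Percent change in Venus reporter signal; lower (more negative) values mean stronger inhibition of that viral stage.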

Values are in %.
How 0% and 100% were set is not given here.
Common to all entries: measured here: Venus reporter, other viral stage.
Part of the compounds only, not a random draw; the main read-out is not listed here.

compound | activity change (Venus) (%)
C[C@H](CO)N1C[C@H](C)[C@@H](CN(C)Cc2ccc(F)cc2)Oc2cc(C#Cc3ccccn3)ccc2S1(=O)=O | -40.46
C[C@@H]1CN([C@H](C)CO)C(=O)c2cccc(NC(=O)c3ccc(-c4nccs4)cc3)c2O[C@H]1CN(C)CC1CCCCC1 | -43.68
CC(C)NC(=O)Nc1ccc2c(c1)C(=O)N([C@@H](C)CO)C[C@H](C)[C@@H](CN(C)Cc1ccc(Cl)c(Cl)c1)OCCCC[C@H](C)O2 | -68.17
C[C@H](CO)N1C[C@H](C)[C@H](CN(C)Cc2ccc(Oc3ccccc3)cc2)OCc2cnnn2CCCC1=O | -28.7
C[C@@H]1CN([C@H](C)CO)C(=O)c2cc(NC(=O)Nc3cccc4ccccc34)ccc2O[C@@H](C)CCCCO[C@@H]1CN(C)Cc1ccccc1 | -19.18
CO[C@@H]1CN(C)C(=O)c2cc(NC(=O)Cc3ccccc3)ccc2OC[C@@H](C)N(CCc2ccccc2)C[C@H]1C | -43.24
C[C@H](CO)N1C[C@H](C)[C@@H](CN(C)S(=O)(=O)c2ccc(F)cc2)Oc2ncc(/C=C/c3ccccc3)cc2C1=O | -34.95
O=C(C[C@@H]1CC[C@H]2[C@@H](COC[C@@H](O)CN2Cc2ccc(Oc3ccccc3)cc2)O1)Nc1nccs1 | -28.98
COc1ccc(S(=O)(=O)Nc2ccc3c(c2)C(=O)N([C@@H](C)CO)C[C@H](C)[C@@H](CN(C)Cc2ccc(C(F)(F)F)cc2)OCCCC[C@@H](C)O3)cc1 | -61.64
C[C@H]1CCCCO[C@H](CN(C)Cc2ccc(C(F)(F)F)cc2)[C@@H](C)CN([C@@H](C)CO)C(=O)c2cc(NC(=O)NC3CCCCC3)ccc2O1 | -35.14
CC(C)CC#Cc1ccc2c(c1)O[C@@H](CN(C)C(=O)C1CCCCC1)[C@H](C)CN([C@H](C)CO)S2(=O)=O | -27.85
C[C@@H]1CCCCO[C@@H](CN(C)Cc2ccc(Cl)c(Cl)c2)[C@@H](C)CN([C@@H](C)CO)C(=O)c2cc(NS(C)(=O)=O)ccc2O1 | -55.87
C[C@@H]1CN([C@H](C)CO)C(=O)Cc2cc(NC(=O)NC3CCCCC3)ccc2O[C@H]1CN(C)Cc1ccc(Oc2ccccc2)cc1 | -17.75
C[C@@H]1CN([C@H](C)CO)C(=O)Cc2cc(NS(=O)(=O)c3ccc(F)cc3)ccc2O[C@H]1CN(C)CC1CCCCC1 | -89.82
CCCC#Cc1ccc2c(c1)O[C@@H](CN(C)Cc1cccnc1)[C@H](C)CN([C@@H](C)CO)S2(=O)=O | -49.87
CC(C)C#Cc1ccc([C@@H]2[C@@H](CO)N3CCCCN(S(=O)(=O)Cc4ccccc4)C[C@H]23)cc1 | -44.22
C[C@H](CO)N1C[C@H](C)[C@H](CN(C)S(=O)(=O)c2cn(C)cn2)Oc2cc(C#Cc3cccc(F)c3)ccc2S1(=O)=O | -69.68
COc1cccc(C#Cc2ccc([C@@H]3[C@@H](CO)N4C(=O)CN(C(=O)c5ccncc5)C[C@@H]34)cc2)c1 | -22.94
Cc1cccc(-c2ccc([C@@H]3[C@H](CO)N4CCCCN(C(=O)c5ccc6c(c5)OCO6)C[C@@H]34)cc2)c1 | -91.24
COc1ccc(-c2ccc3c(c2)O[C@H](CN(C)C(=O)Nc2ccccc2F)[C@H](C)CN([C@H](C)CO)S3(=O)=O)cc1 | -31.08
O=C(c1ccccc1)N1CC(=O)N2[C@H](CO)[C@@H](c3ccc(C#CCC4CCCC4)cc3)[C@H]2C1 | -57.57
C[C@H](CO)N1C[C@H](C)[C@H](CN(C)Cc2ccc3c(c2)OCO3)OCCCC[C@H](C)Oc2ccc(NS(=O)(=O)c3ccc(Cl)cc3)cc2C1=O | -75.83
C[C@@H]1CCCCO[C@@H](CN(C)CC2CCCCC2)[C@H](C)CN([C@@H](C)CO)C(=O)c2cc(NC(=O)Nc3ccccc3)ccc2O1 | -57.22
O=C(C[C@H]1C=C[C@@H](NC(=O)c2cccc(F)c2)[C@@H](CO)O1)NCc1ccc(Oc2ccccc2)cc1 | -30.2
CCCC#Cc1cnc2c(c1)C(=O)N([C@@H](C)CO)C[C@@H](C)[C@H](CN(C)Cc1ccc3c(c1)OCO3)O2 | -34.69
COc1ccc(-c2ccc3c(c2)[C@@H]2[C@@H](CCN2S(=O)(=O)c2ccccc2C)[C@@H](CO)N3)cc1 | -37.37
C[C@@H]1CN([C@H](C)CO)C(=O)c2cc(NC(=O)C3CCCCC3)ccc2O[C@@H](C)CCCCO[C@H]1CN(C)C(=O)C1CCCCC1 | -31.17
COc1ccc(CN(C)C[C@H]2OCCCC[C@@H](C)Oc3ccc(NS(=O)(=O)c4ccccc4)cc3C(=O)N([C@@H](C)CO)C[C@@H]2C)cc1 | -48.18
Cc1ccc(-c2cnc3c(c2)C(=O)N([C@@H](C)CO)C[C@@H](C)[C@@H](CN(C)C(=O)Cc2ccncc2)O3)cc1 | -23.21
C[C@H](CO)N1C[C@H](C)[C@H](CN(C)C(=O)Nc2ccccc2)Oc2c(NC(=O)Nc3ccc(C(F)(F)F)cc3)cccc2C1=O | -52.81
Cc1ccc(S(=O)(=O)N(C)C[C@@H]2OCc3ccccc3-c3c(n(C)c4ccccc34)C(=O)N([C@H](C)CO)C[C@@H]2C)cc1 | -47
Cc1ccccc1-c1ccc2c(c1)O[C@@H](CN(C)Cc1ccncc1)[C@H](C)CN([C@@H](C)CO)S2(=O)=O | -63.46
C[C@@H]1CCCCO[C@H](CN(C)Cc2ccc(Cl)c(Cl)c2)[C@H](C)CN([C@@H](C)CO)C(=O)c2cc(NS(=O)(=O)c3cn(C)cn3)ccc2O1 | -46.5
O=C(C[C@@H]1CC[C@H]2[C@@H](COC[C@@H](O)CN2Cc2ccc(Oc3ccccc3)cc2)O1)N1CCN(c2ccccc2)CC1 | -77.73
C[C@H](CO)N1C[C@H](C)[C@@H](CN(C)C(=O)Cc2ccccc2)Oc2cc(C#Cc3ccccc3F)ccc2S1(=O)=O | -25.49
Cc1cccc(-c2ccc([C@H]3[C@@H](CO)N4CCCCN(Cc5cccnc5)C[C@H]34)cc2)c1 | -40.8
O=C(Nc1ccc(F)cc1)N1CC(=O)N2[C@H](CO)[C@H](c3ccc(-c4cccc(F)c4)cc3)[C@H]2C1 | -36.22
CC(C)CC#Cc1ccc2c(c1)O[C@@H](CN(C)C(=O)c1ccccc1)[C@@H](C)CN([C@H](C)CO)S2(=O)=O | -66.21
C/C=C/c1ccc2c(c1)O[C@@H](CN(C)S(=O)(=O)c1ccc(F)cc1)[C@@H](C)CN([C@H](C)CO)S2(=O)=O | -39.82
CCCC#Cc1ccc2c(c1)O[C@H](CN(C)Cc1ccccn1)[C@H](C)CN([C@@H](C)CO)S2(=O)=O | -38
C[C@H]1CN([C@@H](C)CO)C(=O)Cc2cc(NC(=O)Nc3ccc4c(c3)OCO4)ccc2O[C@@H]1CN(C)CC1CCCCC1 | -42.63
COc1ccc(S(=O)(=O)Nc2ccc3c(c2)CC(=O)N([C@H](C)CO)C[C@@H](C)[C@@H](CN(C)Cc2ccc(-c4ccccc4)cc2)O3)cc1 | -46.94

Once more, the final 4:

compound,activity change (Venus) (%)
C/C=C/c1ccc2c(c1)O[C@@H](CN(C)S(=O)(=O)c1ccc(F)cc1)[C@@H](C)CN([C@H](C)CO)S2(=O)=O,-39.82
CCCC#Cc1ccc2c(c1)O[C@H](CN(C)Cc1ccccn1)[C@H](C)CN([C@@H](C)CO)S2(=O)=O,-38
C[C@H]1CN([C@@H](C)CO)C(=O)Cc2cc(NC(=O)Nc3ccc4c(c3)OCO4)ccc2O[C@@H]1CN(C)CC1CCCCC1,-42.63
COc1ccc(S(=O)(=O)Nc2ccc3c(c2)CC(=O)N([C@H](C)CO)C[C@@H](C)[C@@H](CN(C)Cc2ccc(-c4ccccc4)cc2)O3)cc1,-46.94